Results on 4 substances are retold here after publication doi:10.1101/2025.08.11.669663.

Sequences of proteins named here, by UniProt entry; tags and fusion partners are left off.
UniProt P00441: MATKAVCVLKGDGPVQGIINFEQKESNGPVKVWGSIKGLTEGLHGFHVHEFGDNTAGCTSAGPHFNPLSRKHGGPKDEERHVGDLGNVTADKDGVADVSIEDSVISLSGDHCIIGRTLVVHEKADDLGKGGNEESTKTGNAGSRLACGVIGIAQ
UniProt P52701: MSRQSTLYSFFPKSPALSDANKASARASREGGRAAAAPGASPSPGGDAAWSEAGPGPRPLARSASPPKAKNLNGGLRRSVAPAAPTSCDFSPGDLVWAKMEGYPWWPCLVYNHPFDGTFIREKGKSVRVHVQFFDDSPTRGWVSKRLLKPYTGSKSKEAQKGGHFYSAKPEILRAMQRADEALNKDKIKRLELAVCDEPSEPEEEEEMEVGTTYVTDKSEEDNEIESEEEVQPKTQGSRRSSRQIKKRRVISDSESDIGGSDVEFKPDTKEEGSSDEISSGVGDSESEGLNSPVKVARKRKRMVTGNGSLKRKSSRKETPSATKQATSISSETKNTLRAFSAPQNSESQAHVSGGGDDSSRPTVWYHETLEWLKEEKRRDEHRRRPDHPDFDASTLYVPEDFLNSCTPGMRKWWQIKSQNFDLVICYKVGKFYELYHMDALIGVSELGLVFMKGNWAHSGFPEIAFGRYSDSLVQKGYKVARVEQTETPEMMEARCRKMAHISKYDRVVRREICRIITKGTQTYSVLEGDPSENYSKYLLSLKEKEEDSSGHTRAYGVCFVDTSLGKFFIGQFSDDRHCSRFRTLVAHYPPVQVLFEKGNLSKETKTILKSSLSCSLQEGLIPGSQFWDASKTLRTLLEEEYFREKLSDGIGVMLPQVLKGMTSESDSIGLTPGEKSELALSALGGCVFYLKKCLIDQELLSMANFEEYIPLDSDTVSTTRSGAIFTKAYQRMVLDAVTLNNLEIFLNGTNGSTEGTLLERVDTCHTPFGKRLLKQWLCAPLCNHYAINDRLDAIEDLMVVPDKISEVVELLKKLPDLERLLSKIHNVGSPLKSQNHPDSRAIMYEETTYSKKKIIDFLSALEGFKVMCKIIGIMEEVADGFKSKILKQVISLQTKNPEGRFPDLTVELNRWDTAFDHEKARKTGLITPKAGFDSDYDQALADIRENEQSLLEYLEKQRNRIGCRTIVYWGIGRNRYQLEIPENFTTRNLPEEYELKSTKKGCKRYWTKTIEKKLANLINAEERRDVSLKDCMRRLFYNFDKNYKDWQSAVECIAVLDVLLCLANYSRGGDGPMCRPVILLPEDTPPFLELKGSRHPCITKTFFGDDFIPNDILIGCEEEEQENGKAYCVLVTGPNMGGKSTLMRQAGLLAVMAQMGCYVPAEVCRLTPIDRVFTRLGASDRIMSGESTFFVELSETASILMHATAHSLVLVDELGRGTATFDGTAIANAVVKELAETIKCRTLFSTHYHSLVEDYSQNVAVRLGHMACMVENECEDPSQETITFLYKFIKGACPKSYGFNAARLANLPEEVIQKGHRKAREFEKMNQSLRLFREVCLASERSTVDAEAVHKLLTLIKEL
UniProt P28340: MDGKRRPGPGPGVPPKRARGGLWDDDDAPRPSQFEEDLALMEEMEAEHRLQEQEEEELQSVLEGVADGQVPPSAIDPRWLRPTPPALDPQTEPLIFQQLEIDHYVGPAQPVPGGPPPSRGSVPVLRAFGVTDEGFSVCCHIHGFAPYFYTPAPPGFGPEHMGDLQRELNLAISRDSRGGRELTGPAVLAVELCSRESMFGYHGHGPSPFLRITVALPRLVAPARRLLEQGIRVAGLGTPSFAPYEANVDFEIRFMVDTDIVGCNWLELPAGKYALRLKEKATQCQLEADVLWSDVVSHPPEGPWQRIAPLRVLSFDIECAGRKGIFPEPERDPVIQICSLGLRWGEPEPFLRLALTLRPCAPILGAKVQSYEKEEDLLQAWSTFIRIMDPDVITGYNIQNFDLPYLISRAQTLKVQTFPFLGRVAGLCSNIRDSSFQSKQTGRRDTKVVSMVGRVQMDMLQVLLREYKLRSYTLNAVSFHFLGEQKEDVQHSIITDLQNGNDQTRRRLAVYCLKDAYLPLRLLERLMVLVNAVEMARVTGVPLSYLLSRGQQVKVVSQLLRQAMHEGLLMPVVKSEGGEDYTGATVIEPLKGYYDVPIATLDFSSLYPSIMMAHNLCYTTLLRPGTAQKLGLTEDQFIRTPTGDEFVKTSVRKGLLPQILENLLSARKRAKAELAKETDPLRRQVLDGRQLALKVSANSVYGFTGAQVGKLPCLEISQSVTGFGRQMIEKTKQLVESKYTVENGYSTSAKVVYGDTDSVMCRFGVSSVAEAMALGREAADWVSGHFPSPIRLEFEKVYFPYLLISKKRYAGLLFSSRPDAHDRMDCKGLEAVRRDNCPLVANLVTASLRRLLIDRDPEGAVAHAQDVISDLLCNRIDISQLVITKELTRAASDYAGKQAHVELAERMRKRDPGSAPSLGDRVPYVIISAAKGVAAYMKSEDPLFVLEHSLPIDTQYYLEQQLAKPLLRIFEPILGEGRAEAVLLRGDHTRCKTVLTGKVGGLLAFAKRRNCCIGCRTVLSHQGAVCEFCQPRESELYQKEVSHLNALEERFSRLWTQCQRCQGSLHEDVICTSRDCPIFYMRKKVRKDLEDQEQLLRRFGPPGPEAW
UniProt P12004: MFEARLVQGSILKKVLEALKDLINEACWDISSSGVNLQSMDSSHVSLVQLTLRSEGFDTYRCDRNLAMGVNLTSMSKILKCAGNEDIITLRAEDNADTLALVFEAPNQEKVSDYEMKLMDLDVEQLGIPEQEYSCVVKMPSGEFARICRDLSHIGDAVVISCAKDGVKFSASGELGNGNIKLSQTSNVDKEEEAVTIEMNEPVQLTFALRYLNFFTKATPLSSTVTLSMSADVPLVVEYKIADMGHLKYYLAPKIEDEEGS
UniProt P49736: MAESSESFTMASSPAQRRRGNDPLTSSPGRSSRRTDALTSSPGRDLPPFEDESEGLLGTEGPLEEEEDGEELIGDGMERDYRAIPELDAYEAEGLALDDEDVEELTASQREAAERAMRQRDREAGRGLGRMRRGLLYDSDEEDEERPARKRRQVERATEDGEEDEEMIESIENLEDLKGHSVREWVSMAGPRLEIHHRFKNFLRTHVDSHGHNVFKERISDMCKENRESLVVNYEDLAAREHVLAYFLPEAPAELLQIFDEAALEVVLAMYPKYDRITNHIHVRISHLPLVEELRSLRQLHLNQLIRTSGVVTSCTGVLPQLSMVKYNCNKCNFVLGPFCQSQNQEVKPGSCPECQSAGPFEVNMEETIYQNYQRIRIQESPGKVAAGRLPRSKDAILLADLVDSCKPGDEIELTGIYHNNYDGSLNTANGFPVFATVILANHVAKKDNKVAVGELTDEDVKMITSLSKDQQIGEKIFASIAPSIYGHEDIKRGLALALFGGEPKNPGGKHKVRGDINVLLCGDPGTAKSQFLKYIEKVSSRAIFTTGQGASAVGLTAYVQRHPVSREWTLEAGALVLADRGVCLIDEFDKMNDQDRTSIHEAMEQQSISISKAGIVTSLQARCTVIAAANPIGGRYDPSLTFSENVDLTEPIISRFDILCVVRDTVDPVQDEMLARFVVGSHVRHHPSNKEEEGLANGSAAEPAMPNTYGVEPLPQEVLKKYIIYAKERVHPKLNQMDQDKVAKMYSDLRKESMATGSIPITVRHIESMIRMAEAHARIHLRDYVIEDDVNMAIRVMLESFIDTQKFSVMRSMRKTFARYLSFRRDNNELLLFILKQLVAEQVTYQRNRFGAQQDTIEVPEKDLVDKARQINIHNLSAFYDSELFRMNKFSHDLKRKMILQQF

Results are given in words; binding and its absence hold for the method and conditions named. In cells and extracts the contact can be indirect. Some binding calls cover weakened binding; strength is not graded here.

Holding throughout (experiment): proximity ligation
The target in test [1] is T1, peroxiredoxin 2 (PRDX2) (human (endogenous in HeLa)) (UniProt P32119).
T1 sequence: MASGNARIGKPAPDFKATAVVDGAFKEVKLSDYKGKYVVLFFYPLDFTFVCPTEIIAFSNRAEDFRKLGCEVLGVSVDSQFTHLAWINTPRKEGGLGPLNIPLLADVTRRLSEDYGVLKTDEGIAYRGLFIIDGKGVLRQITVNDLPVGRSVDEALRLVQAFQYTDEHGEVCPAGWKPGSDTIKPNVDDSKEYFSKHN

The target in test [2] is Cu/Zn superoxide dismutase (SOD1) (human (endogenous in HeLa)) (UniProt P00441).
For test [3], the target named is T2, catalase (CAT) (human (endogenous in HeLa)) (UniProt P04040).
T2 sequence: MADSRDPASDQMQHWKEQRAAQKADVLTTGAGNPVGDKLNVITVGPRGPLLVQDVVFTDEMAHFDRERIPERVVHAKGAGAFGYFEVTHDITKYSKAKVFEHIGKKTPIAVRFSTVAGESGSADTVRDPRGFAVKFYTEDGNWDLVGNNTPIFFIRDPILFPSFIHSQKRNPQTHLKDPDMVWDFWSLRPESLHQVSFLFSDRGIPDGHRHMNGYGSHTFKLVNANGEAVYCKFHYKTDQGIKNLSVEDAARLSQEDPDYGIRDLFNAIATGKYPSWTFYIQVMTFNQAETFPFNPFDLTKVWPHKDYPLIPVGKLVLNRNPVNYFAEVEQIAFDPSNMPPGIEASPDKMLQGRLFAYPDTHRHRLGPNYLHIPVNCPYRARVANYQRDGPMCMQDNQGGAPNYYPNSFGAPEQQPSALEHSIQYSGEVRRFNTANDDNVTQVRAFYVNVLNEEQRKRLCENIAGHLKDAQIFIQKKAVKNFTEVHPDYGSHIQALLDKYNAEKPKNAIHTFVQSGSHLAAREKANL

With MSH6 (from UniProt P52701 1-1360), the binding entry in test [1], in test [2] and in test [3] was “binds” throughout.

As for “POLD1 (a DNA polymerase subunit) (from UniProt P28340 1-1107)”, the binding result in test [1], in test [2] and in test [3] was “binds” in each case.

Regarding PCNA (from UniProt P12004 1-261), the binding result in test [2] and in test [3] was “binds” in each case.

With MCM2 (from UniProt P49736 1-904), in test [2], the binding entry was “binds”.
